The values that follow come from PubChem BioAssay AID493014 (National Center for Advancing Translational Sciences (NCATS), 2011).

Molecules are shown by their SMILES. This is one part of the list. Further columns of the screen follow, without active or inactive calls. The list favours compounds with an active or inconclusive main result. The note in brackets gives the kind of curve behind each potency; many fits are weak.

The test in a line: qHTS Assay to Find Inhibitors of Chronic Active B-Cell Receptor Signaling. The following applies: ABC-DLBCL IkBa-CBG/CBR reporter, luminescence ratio (green luciferase fused to IkBa over red control in TMD8 lymphoma cells), 4 h. The gist of the method: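 Concentration-response series (up to 46 uM) were applied to TMD8 dual-reporter cells for 4 h at 37C with doxycycline. Green/red ratio, after filter-overlap correction, defined %Activity; red signal alone was normalised to basal cells and zero luminescence.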

The mark [1] stands for this setting: measured here: CBR red luminescence, cell number.
[2] abbreviates: measured here: IkBa-CBG green luminescence.

Usually AC50 stands for the concentration giving half of the maximal activity seen.

Turning to `COc1ccccc1C(=O)NCCC(=O)NCC1COc2ccccc2O1` (stereo not drawn), under setting [1], the AC50 was 29.1 µM [rising, single point].

For `CNC(=O)NC(=O)C(C)OC(=O)CCCSc1nc2ccccc2s1` (stereo not drawn), the half-maximal activity concentration (AC50) under setting [1] was 7.31 µM [falling, partial curve].

In the case of `Cc1ccc(-c2cc(C(=O)Nc3ccc(S(=O)(=O)Nc4nccs4)cc3)c3ccccc3n2)c(C)c1`, under setting [2], the AC50 is 13 µM [rising, partial curve, poor fit].

As for `NC(=O)c1cccnc1Sc1ccc(Cl)cc1`, the AC50 under setting [1] was 0.13 µM [rising, full curve, poor fit].

With `CCOCCCNC(=O)C(NC(=O)CNC(C)=O)c1ccc(C)cc1` (stereo not drawn), the AC50 under setting [1] was 7.31 µM [rising, partial curve, poor fit].

Turning to `CN(C)c1ccc(-c2noc(-c3ccccc3O)n2)cc1`, the AC50 under setting [1] was 0.562 µM [falling, full curve, poor fit].

On to `C=CCSc1nc(C)c(CCCC)c(=O)[nH]1`, for which the half-maximal activity concentration (AC50) under setting [1] was 10 µM [rising, partial curve].

With `O=C(CSc1nncc2ccccc12)N1CCOCC1`, under setting [1], the AC50 is 35.5 µM [falling, partial curve, poor fit].

In the case of `COC(=O)C1=C(C)N(Cc2ccc(C)cc2)C(=O)/C1=C\c1cc(OC)c(OC)c(OC)c1`, the concentration at half-maximal activity (AC50) under setting [1] was 18.4 µM [falling, single point].

On to `CC1CCN(c2ccc(C(=O)NCc3ccco3)cc2[N+](=O)[O-])CC1`, for which the AC50 under setting [1] is 1.16 µM [rising, full curve, poor fit].

In the case of `Cc1cccc(NC(=O)CSc2nc(C)c(Cc3ccccc3)c(=O)[nH]2)c1C`, the AC50 under setting [1] is 7.94 µM [rising, partial curve, poor fit].

With `CCNS(=O)(=O)c1cc(OC)c(Cl)cc1OC`, the AC50 under setting [1] is 13 µM [rising, partial curve, poor fit].

As to `COc1ccc(C(=O)OCCNC(=O)c2ccncc2)cc1OC`, the concentration at half-maximal activity (AC50) under setting [1] was 18.4 µM [rising, partial curve, poor fit].

Consider `NC(N)=N/N=C/c1ccc(OCc2ccccc2)cc1`, for which the concentration at half-maximal activity (AC50) under setting [2] is 14.1 µM [falling, partial curve, poor fit].

Consider `CC(=O)c1c(C)[nH]c(C(=O)Nc2ccc(C)cn2)c1C`, for which the half-maximal activity concentration (AC50) under setting [1] is 0.731 µM [rising, full curve, poor fit].

As to `O=C(CCc1nc2ccccc2s1)N1CCN(c2ccccc2)CC1`, the concentration at half-maximal activity (AC50) under setting [1] is 12.6 µM [rising, partial curve, poor fit].

In the case of `CCN1C(N(C)CCc2cccs2)=N[C@@H](c2ccccc2)C(C(=O)OC)=C1C`, the AC50 under setting [1] is 12.6 µM [falling, partial curve].

As to `COc1cc(OC)c(C2=NOC(C(=O)Nc3cc(C)nn3-c3ccccc3)C2)cc1Cl` (stereo not drawn), under setting [1], the concentration at half-maximal activity (AC50) is 0.184 µM [rising, full curve, poor fit].

Turning to `COC(=O)c1ccc(COC(=O)CNC(=O)c2ccc(OC)cc2)cc1`, the concentration at half-maximal activity (AC50) under setting [1] was 16.4 µM [falling, single point].

With `CCN(CC)C(=O)c1cnn(-c2ccccc2)c1NC(=O)c1cccc(F)c1`, the half-maximal activity concentration (AC50) under setting [1] is 25.9 µM [rising, single point].

As for `COc1ccc(N2CCN(S(=O)(=O)c3ccc(Cl)s3)CC2)cc1`, the AC50 under setting [1] is 35.5 µM [rising, single point].

`COc1c(Cl)cc(-c2noc(C)c2C(=O)NC(C)C)cc1Cl`: under setting [1], the AC50 is 9.2 µM [rising, partial curve, poor fit].

As for `Cc1cc(N2CCOCC2)nc(-c2ccccc2O)n1`, the AC50 under setting [1] is 3.66 µM [falling, full curve].

`COc1ccc(C(CCNC(C)c2ccccc2)c2ccc(F)cc2)cc1` (stereo not drawn): under setting [1], the AC50 was 14.6 µM [falling, single point].

Regarding `COc1ccccc1N=CC=C1OC(C)(C)C(C)(C)O1`, the AC50 is 35.5 µM [falling, single point] under setting [1] and 17.8 µM [falling, partial curve, poor fit] under setting [2].

Turning to `CCOC(=O)N1CCC(NCCNC(=O)c2ccco2)CC1`, the concentration at half-maximal activity (AC50) under setting [1] was 2 µM [rising, partial curve, poor fit].

Regarding `COc1ccc(-c2c(C)oc3cc(O)cc(O)c3c2=O)cc1OC`, under setting [1], the AC50 was 29.1 µM [rising, single point].

As to `CCSC1=C(C#N)C(c2ccccc2Cl)C(C(=O)c2cccs2)C(O)(C(F)(F)F)N1` (stereo not drawn), the AC50 under setting [1] was 16.4 µM [falling, partial curve] and the AC50 under setting [2] is 20.6 µM [rising, partial curve, poor fit].

As for `CC(=O)c1cccc(NC(=O)COC(=O)c2n[nH]c3ccccc23)c1`, the AC50 under setting [1] was 35.5 µM [falling, single point].

On to `COc1ccc(/C=C/C(=O)Nc2cccnc2)cc1OC`, for which the half-maximal activity concentration (AC50) under setting [1] is 10 µM [falling, partial curve].

`Cc1ccc(OCc2cc(C(=O)NCc3cn4ccccc4n3)no2)cc1C`: the AC50 under setting [1] is 25.1 µM [falling, single point].

As for `Cc1ccc2c(c1Br)/C(=N/N1C(=O)c3ccccc3C1=O)C(=O)N2`, the AC50 under setting [1] was 35.5 µM [falling, single point].

On to `O=C(Nc1ccc(-c2cscn2)cc1)C1CCCN(Cc2ccccc2)C1` (stereo not drawn), for which, under setting [1], the AC50 is 35.5 µM [falling, single point].

In the case of `O=c1oc2ccccc2c2nccnc12`, under setting [1], the concentration at half-maximal activity (AC50) is 2.06 µM [falling, single point].

For `COc1cc(N)c(Cl)cc1C(=O)N[C@@H]1CCN(CCCOc2ccc(F)cc2)C[C@@H]1OC`, under setting [1], the AC50 is 14.1 µM [falling, single point].

For the compound `COc1ccc(N2CCN(S(=O)(=O)CCNC(=O)Cc3ccc([N+](=O)[O-])cc3)CC2)cc1`, the half-maximal activity concentration (AC50) under setting [1] was 0.1 µM [rising, full curve, poor fit].

`Cc1ccccc1Cn1cc(NC(=O)c2nc3ncccn3n2)cn1`: the AC50 under setting [1] was 6.51 µM [falling, single point].

For the compound `O=C(COC(=O)CN1C(=O)c2ccccc2C1=O)Nc1cccc(F)c1`, under setting [1], the concentration at half-maximal activity (AC50) was 5.17 µM [rising, partial curve].

For `FC(F)(F)c1cccc(N2CCc3cn[nH]c32)c1`, the AC50 under setting [1] was 23.1 µM [rising, partial curve, poor fit].

For the compound `CN1C(=O)c2cccc3c(S(=O)(=O)Nc4ccccn4)ccc1c23`, the AC50 under setting [1] was 14.6 µM [rising, partial curve, poor fit].

Regarding `COCCCNC(=O)c1ccc2c(c1)ncn2-c1ccccc1OC`, under setting [1], the concentration at half-maximal activity (AC50) was 29.1 µM [falling, single point].

With `COCCOC1CCN(Cc2cn(Cc3ccccc3)nc2-c2cc3ccccc3o2)CC1`, under setting [1], the AC50 was 35.5 µM [falling, partial curve, poor fit].

`CS(=O)(=O)c1cccc(C(=O)Nc2cccc(-c3nc4ccccc4[nH]3)c2)c1`: under setting [1], the AC50 was 20 µM [falling, partial curve, poor fit].

In the case of `O=C(CSCc1ccccc1)N1CCN(c2ccc(F)cc2)CC1`, the AC50 under setting [1] was 1.58 µM [rising, partial curve, poor fit].

Consider `CNC(=O)c1nc(C)c(C2(C)CC(c3ccccc3)=NO2)s1` (stereo not drawn), for which, under setting [1], the concentration at half-maximal activity (AC50) is 35.5 µM [rising, single point].

For `O=S(=O)(Nc1cccc2c1CCCC2)c1cccc(C(F)(F)F)c1`, the concentration at half-maximal activity (AC50) under setting [2] is 23.1 µM [rising, partial curve, poor fit].

As for `CCOC(=O)C1CCN(S(=O)(=O)c2cccc(-c3csc(C)n3)c2)CC1`, under setting [1], the half-maximal activity concentration (AC50) was 1.16 µM [falling, full curve].

On to `CCN(CC)S(=O)(=O)c1ccc(N/N=C/c2ccc(O)cc2)nc1`, for which, under setting [1], the half-maximal activity concentration (AC50) was 22.4 µM [falling, single point].

Turning to `CCOC(=O)c1c(C)nc2sc(C(=O)Nc3ccc(OC)cc3)c(N)c2c1-c1ccc(OC)cc1`, under setting [1], the half-maximal activity concentration (AC50) was 6.51 µM [falling, single point].

With `CCOc1ccc(NC(=O)c2nccnc2CO)cc1`, under setting [1], the AC50 was 8.91 µM [falling, partial curve, poor fit].

Turning to `CC1CCc2sc3ncnc(N4CCOCC4)c3c2C1` (stereo not drawn), the half-maximal activity concentration (AC50) under setting [1] was 1.3 µM [falling, partial curve, poor fit].

With `CCOC(=O)c1c(SCC(=O)Nc2nccs2)nc(C)c(C)c1C`, the AC50 under setting [1] is 15.8 µM [falling, single point].

Turning to `CCOC(=O)C1=C(C)Nc2ccccc2S1`, the half-maximal activity concentration (AC50) under setting [1] is 35.5 µM [rising, single point].

`COc1cccc(NS(=O)(=O)c2ccc3c(c2)CC(=O)N3)c1`: under setting [1], the half-maximal activity concentration (AC50) was 2.06 µM [rising, full curve].

As to `COc1ccc(Cl)cc1NC(=O)CN(C)CC(=O)Nc1ccccc1-c1ccccc1`, the AC50 under setting [1] is 35.5 µM [falling, single point].

In the case of `O=C(N/N=C/c1cccs1)c1cc(-c2ccc3ccccc3c2)n[nH]1`, under setting [1], the AC50 was 10.3 µM [rising, partial curve].

Turning to `N=C(N)SCc1ccccc1Cl`, under setting [1], the half-maximal activity concentration (AC50) is 16.4 µM [falling, single point].

As to `O=C(N1CCNCC1)N1CCOCC1`, under setting [1], the AC50 is 32.6 µM [falling, single point].

On to `O=C(NCc1csc(-c2cccs2)n1)C1CCC1`, for which, under setting [1], the AC50 is 10 µM [rising, partial curve].

Turning to `Cc1sc2nc(C)n(/N=C/N(C)C)c(=O)c2c1C`, the AC50 under setting [1] was 4.47 µM [rising, full curve, poor fit].

Turning to `CC(C)COc1ccc(C(=O)CCN2CCCCC2)cc1`, under setting [1], the AC50 is 15.8 µM [falling, single point].

`O=C(Nc1nccs1)c1ccc(Cl)c([N+](=O)[O-])c1`: under setting [1], the half-maximal activity concentration (AC50) is 11.2 µM [falling, partial curve, poor fit].

Turning to `Cc1cc(Nc2cccc(F)c2)nc(N2CCOCC2)n1`, the half-maximal activity concentration (AC50) under setting [1] is 35.5 µM [falling, single point].

`Cc1cc(C)cc(NC2=CC(=O)CC(c3ccco3)C2)c1` (stereo not drawn): the AC50 by setting is: under setting [1], 8.2 µM [falling, partial curve]; under setting [2], 25.9 µM [rising, partial curve, poor fit].

Consider `CCNc1c(NC(=O)c2ccc3c(c2)OCO3)c(=O)oc2ccccc12`, for which the half-maximal activity concentration (AC50) under setting [1] was 3.16 µM [falling, single point].
